{"source": "the supplement of paper PMC5949888", "note": "Most values lie at the floor of the assay. Slopes are relative: functional sequences can read slightly below zero.", "data": [{"test_system": "Saccharomyces cerevisiae PS128 hsf1 delta, HSF1(1-493) fusion", "assay": "growth estimate (transactivation domain function in HSF1 fusion, heat-shock survival) (a.u. (slope of normalised read count over time)); higher = stronger growth at 37°C, i.e. more transactivation activity", "conditions": "library: random library", "values": [{"substance": "LAARVPAGVYVEDQHTFKKG", "growth estimate": "< -0.25"}, {"substance": "CMDFVDCKGTC", "growth estimate": "< -0.25"}, {"substance": "GMGHISVLEPIDTIYIISCH", "growth estimate": "< -0.25"}, {"substance": "ILFTRADCHTDIALMDS", "growth estimate": "< -0.25"}, {"substance": "KQSRSRVRRGTSRGRLHREG", "growth estimate": "< -0.25"}, {"substance": "GEYRMENFG", "growth estimate": -0.19}, {"substance": "DICVYFREISHKGYSSSRQR", "growth estimate": "< -0.25"}, {"substance": "VIGSFTGSARRDLVHRH", "growth estimate": "< -0.25"}, {"substance": "GFRLRSPVKRGMAMGHNTPI", "growth estimate": "< -0.25"}, {"substance": "PVWLPTIVAFGCTIGPKPRH", "growth estimate": "< -0.25"}, {"substance": "SHNGRWTQTEFGRGIFVRLD", "growth estimate": "< -0.25"}, {"substance": "CQVLYKDS", "growth estimate": "< -0.25"}, {"substance": "KAVQPRSRISISRMSLNQPR", "growth estimate": "< -0.25"}, {"substance": "SDDGSRASPLLAEPLQSSRD", "growth estimate": "< -0.25"}, {"substance": "LHSNTQLIA", "growth estimate": "< -0.25"}, {"substance": "ECHLYVNWQVPKYSGEHAL", "growth estimate": "< -0.25"}, {"substance": "TSNSLFHQ", "growth estimate": "< -0.25"}, {"substance": "HRTFGANNRKGAQSGSAPGR", "growth estimate": "< -0.25"}, {"substance": "GFVDDAYWWL", "growth estimate": "< -0.25"}, {"substance": "SFVWGCSRSN", "growth estimate": "< -0.25"}, {"substance": "LKFFSHRQERLLCPWHSKND", "growth estimate": "< -0.25"}, {"substance": "EVGLGALRDFKCEFKLEFAG", "growth estimate": "< -0.25"}, {"substance": "ATITRRVRQFIYENECGPLQ", "growth estimate": "< -0.25"}, {"substance": "CCTVGLGQDVKTTGV", "growth estimate": "< -0.25"}, {"substance": "RSTFVPGVALSARGRGLVER", "growth estimate": -0.246}, {"substance": "ITVHRSTGNG", "growth estimate": "< -0.25"}, {"substance": "VWRKKRCEQR", "growth estimate": "< -0.25"}, {"substance": "EDVPQHTVGGTLLTRNQAGA", "growth estimate": "< -0.25"}, {"substance": "SFKSLGRTRPSRPGLVSFVH", "growth estimate": "< -0.25"}, {"substance": "PTRRKSRLVSTKLRLKFSYR", "growth estimate": "< -0.25"}, {"substance": "ESRDFVPTREATIG", "growth estimate": "< -0.25"}, {"substance": "PMADRCLTVPCRRGKY", "growth estimate": "< -0.25"}, {"substance": "KVA", "growth estimate": "< -0.25"}, {"substance": "TDHVLVSP", "growth estimate": "< -0.25"}, {"substance": "TFSEATMPRVSTRQAREGGR", "growth estimate": "< -0.25"}, {"substance": "DPTTC", "growth estimate": "< -0.25"}, {"substance": "ESCEEIEHWARGGPCTQPHS", "growth estimate": "< -0.25"}, {"substance": "GVSYSYIGNGRALHMCNSQV", "growth estimate": "< -0.25"}, {"substance": "SGIRSVPGSPLIMADILDTC", "growth estimate": "< -0.25"}, {"substance": "VGCRRT", "growth estimate": "< -0.25"}, {"substance": "EGIVCT", "growth estimate": "< -0.253"}, {"substance": "WRIARSERRRTTQLRKYATR", "growth estimate": "< -0.25"}, {"substance": "VSIGVHS", "growth estimate": "< -0.25"}, {"substance": "CVKEP", "growth estimate": "< -0.25"}, {"substance": "HNEPIRCLNVYSIVRAQ", "growth estimate": "< -0.25"}, {"substance": "AHETATAGNRELSRDYN", "growth estimate": "< -0.25"}, {"substance": "GYATLDLCALRGGVVKMAEA", "growth estimate": "< -0.25"}, {"substance": "CELNVASNGPLLARHIGTQC", "growth estimate": "< -0.25"}, {"substance": "GNIPVALSRRSNDATC", "growth estimate": -0.221}, {"substance": "LAEAHNSVQGLPQRSAPSPA", "growth estimate": "< -0.25"}, {"substance": "LPVCVSCECHMI", "growth estimate": "< -0.25"}, {"substance": "PSHTAGPIGHDASH", "growth estimate": "< -0.25"}, {"substance": "SDREVFSKNVQEGS", "growth estimate": "< -0.25"}, {"substance": "LDTHRRRREVRLDFVRVLSQ", "growth estimate": "< -0.25"}, {"substance": "TDGHVVGRVR", "growth estimate": "< -0.25"}, {"substance": "RLSEMLAHTLTIAGAFLGFS", "growth estimate": "< -0.25"}, {"substance": "SSWKACANANAGGRSRTVQP", "growth estimate": "< -0.25"}, {"substance": "QKRVRTLPILLGCIGRLEAR", "growth estimate": "< -0.25"}, {"substance": "VRGEAVCV", "growth estimate": -0.245}, {"substance": "GGVKDYLASRGRPSLKGRVK", "growth estimate": "< -0.25"}, {"substance": "CNGAHAEPKSLSVD", "growth estimate": -0.246}, {"substance": "ATPLTAWGGRVGFYTLTLKS", "growth estimate": "< -0.25"}, {"substance": "LPAHT", "growth estimate": "< -0.25"}, {"substance": "APSPLLGGYVQYGSGA", "growth estimate": "< -0.25"}, {"substance": "GRSGQFATYGKGNS", "growth estimate": "< -0.25"}, {"substance": "RLDGDLEILSRVPLVAIVPA", "growth estimate": "< -0.25"}, {"substance": "KGRYAG", "growth estimate": "< -0.25"}, {"substance": "VSPVISIGDNSRQNASVPLE", "growth estimate": -0.241}, {"substance": "GQGER", "growth estimate": "< -0.25"}, {"substance": "SLGPVPVDGI", "growth estimate": "< -0.25"}, {"substance": "GISD", "growth estimate": "< -0.25"}, {"substance": "QRLHGIAGKYLVPGPKLLTR", "growth estimate": "< -0.25"}, {"substance": "NDL", "growth estimate": "< -0.25"}, {"substance": "TSCQ", "growth estimate": "< -0.25"}, {"substance": "RVICGGALNLRATAADFQGG", "growth estimate": "< -0.25"}, {"substance": "LYPRCGHVLEGTQYRHGVCV", "growth estimate": "< -0.25"}, {"substance": "SGITT", "growth estimate": "< -0.25"}, {"substance": "WFPLTNSDANTETFLHLNVT", "growth estimate": "< -0.25"}, {"substance": "ALLVEYYREFLGKHS", "growth estimate": "< -0.25"}, {"substance": "SYIRVALYL", "growth estimate": "< -0.25"}, {"substance": "SDSNLLVGATTIRGPEGVQR", "growth estimate": "< -0.25"}, {"substance": "QGRAPCAIFLDSN", "growth estimate": -0.111}, {"substance": "SLIRSGLYRTSGAAINGIRS", "growth estimate": "< -0.25"}, {"substance": "VQAAF", "growth estimate": "< -0.25"}, {"substance": "AEGRIELTR", "growth estimate": "< -0.25"}, {"substance": "AIGDQERIISR", "growth estimate": "< -0.25"}, {"substance": "TDASVTLYPLS", "growth estimate": "< -0.25"}, {"substance": "NNIV", "growth estimate": "< -0.25"}, {"substance": "VHPDMSSGLNP", "growth estimate": "< -0.25"}, {"substance": "SYVHSKGTRRRS", "growth estimate": "< -0.25"}, {"substance": "IADGRYNCNSTHITKAPE", "growth estimate": "< -0.25"}, {"substance": "SRANLGRNLKCYSTRYTNWA", "growth estimate": "< -0.25"}, {"substance": "VPKEYRRFPTLVMAKSGRPR", "growth estimate": "< -0.25"}, {"substance": "TNPLHPFTLTGAE", "growth estimate": "< -0.25"}, {"substance": "ARPN", "growth estimate": "< -0.25"}, {"substance": "TLRGHCFPVLIRTRCLFGAA", "growth estimate": "< -0.25"}, {"substance": "CGITSLAIVPEIVCRPSRPN", "growth estimate": "< -0.25"}, {"substance": "RIYTTPTRLSKIGAGQQLVA", "growth estimate": "< -0.25"}, {"substance": "LLGPSLW", "growth estimate": "< -0.25"}, {"substance": "DTPSCNA", "growth estimate": "< -0.25"}, {"substance": "LGRRLSHSTDAENRRVNMGD", "growth estimate": "< -0.25"}, {"substance": "RNRGSIYALLGGFPLDVVTT", "growth estimate": "< -0.25"}, {"substance": "GVIS", "growth estimate": "< -0.25"}, {"substance": "ACIQSRSWEGDFRLADNYLK", "growth estimate": "< -0.25"}, {"substance": "YAVSGVRTVGLGLFSGRFRV", "growth estimate": "< -0.25"}, {"substance": "TSNYKGYWYEHRPVLRFAGQ", "growth estimate": "< -0.25"}, {"substance": "ISRV", "growth estimate": "< -0.25"}, {"substance": "QFTVARCRCHRLKSSGCCTA", "growth estimate": "< -0.25"}, {"substance": "QGRLRSRECILAVFPETNCG", "growth estimate": "< -0.25"}, {"substance": "RSVQFATSQRAWEGLCTWDV", "growth estimate": -0.222}, {"substance": "CGQIELAWLRKFVVIARRLK", "growth estimate": "< -0.25"}, {"substance": "RNEG", "growth estimate": "< -0.25"}, {"substance": "NPVRPSVWDLK", "growth estimate": "< -0.25"}, {"substance": "RRIILFMYS", "growth estimate": "< -0.25"}, {"substance": "TQEEDAVPYGRSAGARG", "growth estimate": "< -0.25"}, {"substance": "VSIRNDGFS", "growth estimate": "< -0.25"}, {"substance": "RERLPNR", "growth estimate": "< -0.25"}, {"substance": "KMDSTRGFRKLARREAPASS", "growth estimate": "< -0.25"}, {"substance": "ISWATFISRVLATSPDMG", "growth estimate": "< -0.25"}, {"substance": "RDNPYRPRDARVAKNCQEE", "growth estimate": "< -0.25"}, {"substance": "GTLYRWSVPLGEHT", "growth estimate": "< -0.25"}, {"substance": "ANRDFSGHSILFGPQQGPDP", "growth estimate": "< -0.25"}, {"substance": "ACIHSGR", "growth estimate": -0.239}, {"substance": "DEEGIL", "growth estimate": "< -0.25"}, {"substance": "DRDYPQG", "growth estimate": "< -0.25"}, {"substance": "IRGL", "growth estimate": "< -0.25"}, {"substance": "DPSHRECQNDYDAELFGASV", "growth estimate": 0.527}, {"substance": "PSLIANIKVRHLGRQYSSLV", "growth estimate": "< -0.25"}, {"substance": "KRANVQIIPLFGGSTSWTAE", "growth estimate": "< -0.25"}, {"substance": "HFARESNVRGLNGQY", "growth estimate": "< -0.25"}, {"substance": "RSYAPAESGAVSNYGHVVAF", "growth estimate": "< -0.25"}, {"substance": "HSLVKVGHSNGIKGRWTLSA", "growth estimate": "< -0.25"}, {"substance": "ASS", "growth estimate": "< -0.25"}, {"substance": "FVCYCPGWPRRLGCTYPCGT", "growth estimate": "< -0.25"}, {"substance": "NGIDYVLVLAAPEET", "growth estimate": "< -0.25"}, {"substance": "SGLEFG", "growth estimate": "< -0.25"}, {"substance": "PAICPPHG", "growth estimate": "< -0.25"}, {"substance": "SNHFNLGPYWPC", "growth estimate": "< -0.25"}, {"substance": "ISCVQSLPRLRVGSVLVYGE", "growth estimate": "< -0.25"}, {"substance": "LCCERLQGA", "growth estimate": "< -0.25"}, {"substance": "KITLIRLETGRNLGDRSFVS", "growth estimate": "< -0.25"}, {"substance": "GNIESLVLATLSACSRPK", "growth estimate": "< -0.25"}, {"substance": "AGYEKLLYSAVCARSDH", "growth estimate": "< -0.25"}, {"substance": "RERHDSVLERQLLLQLPYGV", "growth estimate": "< -0.25"}, {"substance": "FTAVTTKLPRHIRRRTHRSK", "growth estimate": "< -0.25"}, {"substance": "LLKFVCSKAYNASMWQPSGQ", "growth estimate": "< -0.25"}, {"substance": "VLIGLDCESYLPKCPDRKGI", "growth estimate": "< -0.25"}, {"substance": "KDKENLEVFIHPATHTLCEA", "growth estimate": "< -0.25"}, {"substance": "FVKCGAFSL", "growth estimate": "< -0.25"}, {"substance": "LQSTRVR", "growth estimate": "< -0.25"}, {"substance": "SFQAMSPVTCRGDDLPGLKV", "growth estimate": "< -0.25"}, {"substance": "CHPIIPNG", "growth estimate": "< -0.25"}, {"substance": "SSPSGRLPGCPCGRWITYI", "growth estimate": "< -0.25"}, {"substance": "EEAKDEFWPPTCAW", "growth estimate": "< -0.25"}, {"substance": "ASQGCEPLRKL", "growth estimate": "< -0.25"}, {"substance": "LYHVLIAD", "growth estimate": "< -0.25"}, {"substance": "DMSIGRASFLMLV", "growth estimate": "< -0.25"}, {"substance": "GWITVVRASRGKQRSSQRRS", "growth estimate": "< -0.25"}]}]}
